# Test results as given in US11579152B2, “Engineered hERG channel proteins, vesicles and methods of identifying small molecule pharmacological agents” (priority 2016, dated 2023).
# Sequences of proteins named here, by UniProt entry; tags and fusion partners are left off. A line that says so, or that is headed by a name, gives the form on record, which may keep a tag or linker.
# UniProt Q12809, with tags, fused parts or gaps DEL141-380/DEL871-1005: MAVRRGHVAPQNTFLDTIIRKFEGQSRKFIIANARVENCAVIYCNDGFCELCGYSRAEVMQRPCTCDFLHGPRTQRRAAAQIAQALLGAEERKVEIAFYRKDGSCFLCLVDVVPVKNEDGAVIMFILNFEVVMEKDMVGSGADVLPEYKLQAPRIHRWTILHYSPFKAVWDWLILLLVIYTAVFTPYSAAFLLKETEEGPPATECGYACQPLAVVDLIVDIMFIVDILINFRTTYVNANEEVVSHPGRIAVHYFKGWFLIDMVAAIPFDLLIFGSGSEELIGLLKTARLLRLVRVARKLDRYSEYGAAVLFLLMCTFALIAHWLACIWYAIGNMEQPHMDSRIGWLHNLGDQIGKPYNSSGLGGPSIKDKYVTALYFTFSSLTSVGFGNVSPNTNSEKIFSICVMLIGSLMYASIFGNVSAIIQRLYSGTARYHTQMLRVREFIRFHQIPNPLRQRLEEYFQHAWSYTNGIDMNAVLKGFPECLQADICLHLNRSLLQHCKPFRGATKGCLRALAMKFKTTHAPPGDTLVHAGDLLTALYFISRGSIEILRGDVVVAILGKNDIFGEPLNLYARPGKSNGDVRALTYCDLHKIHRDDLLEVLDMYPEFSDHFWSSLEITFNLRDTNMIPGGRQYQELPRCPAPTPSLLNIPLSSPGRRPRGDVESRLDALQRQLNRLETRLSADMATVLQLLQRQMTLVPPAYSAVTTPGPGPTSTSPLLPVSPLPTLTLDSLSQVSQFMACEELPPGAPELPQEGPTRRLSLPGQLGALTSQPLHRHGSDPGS
# Biological target: hERG channel (Homo sapiens, UniProt Q12809, DEL141-380/DEL871-1005)
# Experiment: in vitro
# Settings: pH 7.4
compound,measurement,value
CCC[C@@H]1C[C@@H](C(=O)N[C@@H]([C@H]2O[C@H](SC)[C@H](O)[C@@H](O)[C@H]2O)[C@H](C)Cl)N(C)C1 [Clindamycin],inhibition at 100 µM,9.2 ± 4.3%
